Assay results: paper doi:10.1101/2022.11.06.515351
No constants are given. Whether binding was seen depends on the method and setting. Binding seen in cells or lysates may run through a third protein. Some results given as binding are weak or reduced against the parent protein; the word gives no strength. For some of these results: Where a sequence is shown, tags or fusion partners need not be part of it.

Sequences of proteins named here, by UniProt entry; tags and fusion partners are left off. A change or cut given only in a name is not applied to a line headed by its entry.
UniProt P38873: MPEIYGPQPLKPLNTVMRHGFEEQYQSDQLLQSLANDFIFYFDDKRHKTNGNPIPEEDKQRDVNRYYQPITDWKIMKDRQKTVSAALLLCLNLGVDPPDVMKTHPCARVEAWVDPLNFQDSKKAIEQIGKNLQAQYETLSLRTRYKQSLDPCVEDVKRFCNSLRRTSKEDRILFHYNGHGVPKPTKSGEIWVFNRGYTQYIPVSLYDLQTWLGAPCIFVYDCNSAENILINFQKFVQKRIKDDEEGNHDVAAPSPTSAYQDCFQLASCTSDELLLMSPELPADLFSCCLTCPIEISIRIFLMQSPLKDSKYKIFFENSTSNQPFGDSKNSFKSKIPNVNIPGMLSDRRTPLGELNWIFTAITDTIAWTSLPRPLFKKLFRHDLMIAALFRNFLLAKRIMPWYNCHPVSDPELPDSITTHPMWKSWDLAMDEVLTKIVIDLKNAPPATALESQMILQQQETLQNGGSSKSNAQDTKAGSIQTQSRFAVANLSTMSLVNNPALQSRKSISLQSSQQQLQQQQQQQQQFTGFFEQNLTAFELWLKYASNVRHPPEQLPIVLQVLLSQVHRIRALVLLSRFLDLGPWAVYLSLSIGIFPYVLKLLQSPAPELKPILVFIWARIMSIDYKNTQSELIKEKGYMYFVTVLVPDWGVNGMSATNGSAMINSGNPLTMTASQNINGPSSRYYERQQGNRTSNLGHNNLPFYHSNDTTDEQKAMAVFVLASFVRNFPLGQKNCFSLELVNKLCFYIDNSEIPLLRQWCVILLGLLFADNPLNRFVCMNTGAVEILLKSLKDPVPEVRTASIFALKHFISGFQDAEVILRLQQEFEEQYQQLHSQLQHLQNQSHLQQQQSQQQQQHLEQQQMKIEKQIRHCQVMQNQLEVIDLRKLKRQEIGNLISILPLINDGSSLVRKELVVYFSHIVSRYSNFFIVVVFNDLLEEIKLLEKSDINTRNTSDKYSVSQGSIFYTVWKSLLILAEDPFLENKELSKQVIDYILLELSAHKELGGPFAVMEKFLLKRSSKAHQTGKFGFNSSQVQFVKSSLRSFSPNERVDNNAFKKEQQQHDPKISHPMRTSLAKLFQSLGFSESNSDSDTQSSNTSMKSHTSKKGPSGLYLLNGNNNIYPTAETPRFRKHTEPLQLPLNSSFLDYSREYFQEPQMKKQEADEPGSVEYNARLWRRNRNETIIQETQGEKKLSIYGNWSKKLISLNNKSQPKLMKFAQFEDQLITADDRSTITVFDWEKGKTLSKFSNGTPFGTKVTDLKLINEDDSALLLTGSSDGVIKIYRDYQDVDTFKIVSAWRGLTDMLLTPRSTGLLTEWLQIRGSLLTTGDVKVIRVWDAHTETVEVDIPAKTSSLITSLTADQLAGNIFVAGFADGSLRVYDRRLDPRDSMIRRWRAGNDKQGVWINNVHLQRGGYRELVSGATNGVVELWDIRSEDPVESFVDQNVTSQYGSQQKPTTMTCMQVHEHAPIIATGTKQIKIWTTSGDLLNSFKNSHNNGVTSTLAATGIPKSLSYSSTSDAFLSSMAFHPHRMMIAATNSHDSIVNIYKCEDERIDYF
UniProt P35169: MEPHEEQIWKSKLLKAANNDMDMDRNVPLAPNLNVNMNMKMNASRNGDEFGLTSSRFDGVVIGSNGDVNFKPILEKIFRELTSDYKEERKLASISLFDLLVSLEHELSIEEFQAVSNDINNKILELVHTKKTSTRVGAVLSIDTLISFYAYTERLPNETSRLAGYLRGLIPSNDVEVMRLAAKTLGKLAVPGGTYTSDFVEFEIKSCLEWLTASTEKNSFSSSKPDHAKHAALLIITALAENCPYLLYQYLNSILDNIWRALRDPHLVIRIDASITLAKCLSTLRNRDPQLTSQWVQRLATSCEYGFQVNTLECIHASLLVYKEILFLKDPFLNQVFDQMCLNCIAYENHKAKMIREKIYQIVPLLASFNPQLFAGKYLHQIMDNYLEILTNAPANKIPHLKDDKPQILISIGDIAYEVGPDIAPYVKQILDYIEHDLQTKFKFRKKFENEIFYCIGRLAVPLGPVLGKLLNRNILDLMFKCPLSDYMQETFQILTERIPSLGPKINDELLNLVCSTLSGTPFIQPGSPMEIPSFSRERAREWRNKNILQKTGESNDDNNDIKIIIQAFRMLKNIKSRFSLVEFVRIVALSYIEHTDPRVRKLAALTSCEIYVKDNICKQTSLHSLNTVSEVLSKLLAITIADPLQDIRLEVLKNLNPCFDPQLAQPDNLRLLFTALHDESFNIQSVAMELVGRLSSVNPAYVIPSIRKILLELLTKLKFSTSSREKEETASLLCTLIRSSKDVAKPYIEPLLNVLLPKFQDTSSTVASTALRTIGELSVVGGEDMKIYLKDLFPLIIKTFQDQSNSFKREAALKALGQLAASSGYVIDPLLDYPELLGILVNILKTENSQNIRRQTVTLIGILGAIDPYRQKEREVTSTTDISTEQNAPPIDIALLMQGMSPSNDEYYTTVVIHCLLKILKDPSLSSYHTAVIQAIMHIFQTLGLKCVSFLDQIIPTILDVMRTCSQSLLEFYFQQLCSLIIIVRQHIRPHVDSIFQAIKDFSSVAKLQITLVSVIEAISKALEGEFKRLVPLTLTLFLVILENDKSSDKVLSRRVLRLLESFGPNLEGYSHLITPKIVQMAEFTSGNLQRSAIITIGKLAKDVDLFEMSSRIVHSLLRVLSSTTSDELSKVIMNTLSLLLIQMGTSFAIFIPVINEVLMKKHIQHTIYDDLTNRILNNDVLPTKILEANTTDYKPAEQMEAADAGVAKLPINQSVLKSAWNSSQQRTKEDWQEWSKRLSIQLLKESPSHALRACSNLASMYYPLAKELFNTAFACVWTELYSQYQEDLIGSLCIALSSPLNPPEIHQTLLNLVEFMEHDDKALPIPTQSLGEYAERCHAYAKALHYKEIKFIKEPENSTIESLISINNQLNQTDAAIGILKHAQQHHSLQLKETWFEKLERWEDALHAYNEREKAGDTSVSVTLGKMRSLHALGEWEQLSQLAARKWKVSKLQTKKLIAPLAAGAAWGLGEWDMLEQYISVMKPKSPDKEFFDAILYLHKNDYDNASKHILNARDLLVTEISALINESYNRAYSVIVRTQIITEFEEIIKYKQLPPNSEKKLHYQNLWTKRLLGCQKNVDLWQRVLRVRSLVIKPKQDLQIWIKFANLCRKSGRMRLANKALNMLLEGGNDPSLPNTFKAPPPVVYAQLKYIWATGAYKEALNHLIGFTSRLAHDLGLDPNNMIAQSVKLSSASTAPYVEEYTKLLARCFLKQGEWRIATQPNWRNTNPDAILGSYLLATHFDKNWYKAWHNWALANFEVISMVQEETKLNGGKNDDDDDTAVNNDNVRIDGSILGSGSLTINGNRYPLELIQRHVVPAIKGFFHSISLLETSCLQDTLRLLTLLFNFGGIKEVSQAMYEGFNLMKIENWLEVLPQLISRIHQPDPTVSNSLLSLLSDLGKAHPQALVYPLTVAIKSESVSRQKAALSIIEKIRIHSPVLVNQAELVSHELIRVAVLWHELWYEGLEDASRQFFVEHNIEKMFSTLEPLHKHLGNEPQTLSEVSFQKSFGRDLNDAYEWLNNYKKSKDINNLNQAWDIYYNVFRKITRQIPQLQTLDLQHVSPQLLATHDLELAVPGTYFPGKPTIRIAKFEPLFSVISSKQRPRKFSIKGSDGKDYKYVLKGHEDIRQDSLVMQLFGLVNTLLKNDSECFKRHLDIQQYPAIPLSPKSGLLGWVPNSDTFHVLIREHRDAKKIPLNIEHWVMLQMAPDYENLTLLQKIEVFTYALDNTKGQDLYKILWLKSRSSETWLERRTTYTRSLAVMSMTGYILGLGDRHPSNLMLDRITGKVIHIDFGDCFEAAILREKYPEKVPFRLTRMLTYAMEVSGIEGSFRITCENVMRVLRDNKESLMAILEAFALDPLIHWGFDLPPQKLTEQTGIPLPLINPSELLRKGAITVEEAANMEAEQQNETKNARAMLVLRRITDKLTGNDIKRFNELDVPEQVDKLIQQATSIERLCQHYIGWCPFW
UniProt P07149: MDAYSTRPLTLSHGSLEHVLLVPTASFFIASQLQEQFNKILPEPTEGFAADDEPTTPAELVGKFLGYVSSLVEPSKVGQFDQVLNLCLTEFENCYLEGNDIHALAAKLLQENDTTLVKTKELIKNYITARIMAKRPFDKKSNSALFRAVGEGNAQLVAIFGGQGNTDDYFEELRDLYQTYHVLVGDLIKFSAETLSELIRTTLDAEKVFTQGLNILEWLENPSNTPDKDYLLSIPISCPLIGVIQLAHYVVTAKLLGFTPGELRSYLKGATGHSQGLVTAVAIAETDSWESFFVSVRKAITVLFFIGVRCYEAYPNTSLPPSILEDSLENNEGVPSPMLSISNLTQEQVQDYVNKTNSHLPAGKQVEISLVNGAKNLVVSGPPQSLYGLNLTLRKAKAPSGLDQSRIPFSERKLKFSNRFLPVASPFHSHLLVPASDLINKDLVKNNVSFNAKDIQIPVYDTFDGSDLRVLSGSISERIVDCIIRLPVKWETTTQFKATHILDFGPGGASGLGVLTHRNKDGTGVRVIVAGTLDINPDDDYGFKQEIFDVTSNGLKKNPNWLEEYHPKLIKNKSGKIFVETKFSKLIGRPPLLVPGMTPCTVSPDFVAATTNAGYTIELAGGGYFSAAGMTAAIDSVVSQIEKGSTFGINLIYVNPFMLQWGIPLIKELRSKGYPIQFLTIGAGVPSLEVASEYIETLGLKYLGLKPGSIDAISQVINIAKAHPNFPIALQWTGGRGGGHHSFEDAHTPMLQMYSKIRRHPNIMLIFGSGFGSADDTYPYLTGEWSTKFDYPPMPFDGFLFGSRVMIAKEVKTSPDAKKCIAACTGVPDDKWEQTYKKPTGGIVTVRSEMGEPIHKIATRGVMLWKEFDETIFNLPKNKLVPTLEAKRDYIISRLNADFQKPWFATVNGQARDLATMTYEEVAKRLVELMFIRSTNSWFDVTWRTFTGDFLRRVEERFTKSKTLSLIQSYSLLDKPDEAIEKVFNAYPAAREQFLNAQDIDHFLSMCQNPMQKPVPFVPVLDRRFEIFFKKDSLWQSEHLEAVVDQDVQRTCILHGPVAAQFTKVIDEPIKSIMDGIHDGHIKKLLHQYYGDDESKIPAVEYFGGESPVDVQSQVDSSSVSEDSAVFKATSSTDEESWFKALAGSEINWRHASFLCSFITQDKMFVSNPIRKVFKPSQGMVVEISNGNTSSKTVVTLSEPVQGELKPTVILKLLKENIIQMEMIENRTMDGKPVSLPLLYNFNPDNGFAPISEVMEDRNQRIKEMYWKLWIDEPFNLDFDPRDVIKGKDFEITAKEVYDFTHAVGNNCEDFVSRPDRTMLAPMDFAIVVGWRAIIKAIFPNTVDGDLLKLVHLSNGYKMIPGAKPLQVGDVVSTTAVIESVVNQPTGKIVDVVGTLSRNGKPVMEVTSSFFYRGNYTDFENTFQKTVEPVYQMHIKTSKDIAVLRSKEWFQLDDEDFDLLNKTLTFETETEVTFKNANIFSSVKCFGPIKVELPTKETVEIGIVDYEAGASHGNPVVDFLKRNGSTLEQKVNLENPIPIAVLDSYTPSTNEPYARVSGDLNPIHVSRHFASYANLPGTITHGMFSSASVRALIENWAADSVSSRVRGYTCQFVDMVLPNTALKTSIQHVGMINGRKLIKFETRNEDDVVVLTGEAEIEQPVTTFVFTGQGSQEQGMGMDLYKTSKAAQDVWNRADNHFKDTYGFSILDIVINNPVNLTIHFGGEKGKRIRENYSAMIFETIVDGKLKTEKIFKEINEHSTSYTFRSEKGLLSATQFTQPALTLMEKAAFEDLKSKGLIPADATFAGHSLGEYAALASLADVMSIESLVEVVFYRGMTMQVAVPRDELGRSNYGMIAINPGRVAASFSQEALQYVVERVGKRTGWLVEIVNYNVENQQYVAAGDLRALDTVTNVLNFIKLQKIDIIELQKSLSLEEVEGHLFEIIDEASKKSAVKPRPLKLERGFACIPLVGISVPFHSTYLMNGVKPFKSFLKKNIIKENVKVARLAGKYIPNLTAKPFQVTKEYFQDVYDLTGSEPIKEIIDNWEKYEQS

How the values were obtained:
Assay in all cases: co-IP
[1] = target: Kog1-HA3 (yeast TORC1 subunit Kog1, genomically HA3-tagged) (yeast) (UniProt P38873)
[2] = target: Tor1 R2105/R2107 alanine mutant (yeast) (UniProt P35169)
[3] = target: T1, Tco89-HA3 (yeast TORC1 subunit Tco89, genomically HA3-tagged) (yeast) (UniProt Q08921)
T1 sequence: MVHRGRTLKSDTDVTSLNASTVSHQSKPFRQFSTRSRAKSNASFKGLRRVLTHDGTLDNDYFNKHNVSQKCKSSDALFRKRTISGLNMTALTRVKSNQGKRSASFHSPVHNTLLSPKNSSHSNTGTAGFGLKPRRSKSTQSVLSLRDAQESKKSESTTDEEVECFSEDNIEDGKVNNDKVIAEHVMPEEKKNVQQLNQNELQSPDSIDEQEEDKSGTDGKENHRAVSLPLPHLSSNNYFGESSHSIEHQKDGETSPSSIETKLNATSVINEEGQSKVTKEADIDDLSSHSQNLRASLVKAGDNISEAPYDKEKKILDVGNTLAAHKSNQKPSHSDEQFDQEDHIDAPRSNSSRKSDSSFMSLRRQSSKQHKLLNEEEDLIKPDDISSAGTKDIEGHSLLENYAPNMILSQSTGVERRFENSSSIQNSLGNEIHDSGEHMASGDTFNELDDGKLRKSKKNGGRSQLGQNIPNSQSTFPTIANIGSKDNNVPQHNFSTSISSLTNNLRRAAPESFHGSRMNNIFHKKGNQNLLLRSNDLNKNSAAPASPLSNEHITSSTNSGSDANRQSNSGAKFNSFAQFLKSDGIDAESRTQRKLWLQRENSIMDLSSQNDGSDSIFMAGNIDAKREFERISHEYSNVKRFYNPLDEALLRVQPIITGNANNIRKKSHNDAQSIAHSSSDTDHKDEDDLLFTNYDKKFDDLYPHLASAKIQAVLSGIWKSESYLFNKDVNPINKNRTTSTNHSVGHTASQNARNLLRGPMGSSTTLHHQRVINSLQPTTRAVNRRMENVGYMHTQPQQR

Row | binding [1] | binding [2] | binding [3] | Substance
1 | binds | – | – | Fas1-myc13 (Fas1 subunit of the yeast fatty acid synthase complex, genomically tagged) (from UniProt P07149 1-2051) (enzyme)
2 | – | binds | – | Kog1 (construct not stated, co-immunoprecipitation with Tor1) (from UniProt P38873 1-1557)
3 | binds | – | binds | Acc1-myc13 (yeast acetyl-CoA carboxylase, genomically tagged) (from UniProt Q00955 1-2233) (enzyme)
